PubChem BioAssay AID1053208 | Peter MacCallum Cancer Centre – 2014
The whole screen tested about 17,000 reagents; this is a part drawn at random. 788 of them (4.7%) count as active. 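Calls rest on z-score classes alone; an extra cut-off of viability at most 70% of control was not applied to them.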 Unmarked entries are inactive. Reagent sequences are not shown.

Screen: 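Synthetic lethal interactions between gene loss and doxorubicin in osteosarcoma cells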 (primary screen)
Cells: mouse osteosarcoma cells, early-passage culture from an engineered mouse model of fibroblastic bone tumour
Reagents: siRNA pool against mouse genes, 40 nM
Time to read-out: about 120 h (48 h before drug, then 72 h with drug)
Conditions: doxorubicin 100 nM for 72 h, roughly 30-40% inhibitory dose
Measurement: 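Luminescent ATP signal taken as viability with or without 100 nM doxorubicin for 72 h; mean of two wells set against non-targeting siRNA and turned into robust z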
Scale: viability z-score with doxorubicin and doxorubicin viability vs non-targeting: higher = more viable cells under doxorubicin; viability z-score without drug: higher = more viable cells with knock-down alone; z-score of drug to no-drug ratio: higher = less drug sensitisation by knock-down
Hit rule: 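Called active if knock-down leaves viability unchanged without drug (z within -2 to 2) but lowers it with doxorubicin (z at or under -2)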

| Gene | combined z-score class | viability z-score with doxorubicin | viability z-score without drug | z-score of drug to no-drug ratio | doxorubicin viability vs non-targeting |
| --- | --- | --- | --- | --- | --- |
| Fmo4 (flavin containing monooxygenase 4) | no change with or without drug | -1.8 | -0.84 | -1.24 | 0.78 |
| Rpl37a (ribosomal protein L37a) | low cell count with and without drug | -5.51 | -3.71 | -4.05 | 0.45 |
| Fam107a (family with sequence similarity 107, member A) | no change with or without drug | 0.22 | 0.17 | 0.22 | 0.96 |
| Or6c213 (olfactory receptor family 6 subfamily C member 213) | no change with or without drug | 0.45 | -0.84 | 1.24 | 0.98 |
| Slc12a4 | no change with or without drug | 0.67 | 0.34 | 0.56 | 1 |
| Apod (apolipoprotein D) | no change with or without drug | 1.8 | 1.18 | 1.12 | 1.1 |
| Prkag1 (protein kinase, AMP-activated, gamma 1 non-catalytic subunit) | no change with or without drug | 1.57 | 1.18 | 0.9 | 1.08 |
| Minpp1 (multiple inositol polyphosphate histidine phosphatase 1) | no change with or without drug | -1.46 | -1.18 | -0.67 | 0.81 |
| Scrn1 (secernin 1) | no change with or without drug | -1.01 | 1.01 | -1.57 | 0.85 |
| Atp6v1c1 (ATPase, H+ transporting, lysosomal V1 subunit C1) | no change with or without drug | 0 | 0.17 | 0 | 0.94 |
| Lncpint (long non-protein coding RNA, Trp53 induced transcript) | no change with or without drug | 0.9 | 0.84 | 0.45 | 1.02 |

Continued; the last 2 above are carried over.
| Gene | combined z-score class | viability z-score with doxorubicin | viability z-score without drug | z-score of drug to no-drug ratio | doxorubicin viability vs non-targeting |
| --- | --- | --- | --- | --- | --- |
| Atp6v1c1 (ATPase, H+ transporting, lysosomal V1 subunit C1) | no change with or without drug | 0 | 0.17 | 0 | 0.94 |
| Lncpint (long non-protein coding RNA, Trp53 induced transcript) | no change with or without drug | 0.9 | 0.84 | 0.45 | 1.02 |
| Icam4 (intercellular adhesion molecule 4) | no change with or without drug | -1.91 | -1.69 | -0.79 | 0.77 |
| Neu2 (neuraminidase 2) | no change with or without drug | 0 | -0.17 | 0.22 | 0.94 |
| Nrf1 (nuclear respiratory factor 1) | no change with or without drug | 0.67 | -0.34 | 1.12 | 1 |
| Ptpn13 (protein tyrosine phosphatase, non-receptor type 13) | no change with or without drug | 0.11 | -0.51 | 0.56 | 0.95 |
| Fgf20 (fibroblast growth factor 20) | no change with or without drug | -1.35 | 0.17 | -1.46 | 0.82 |
| Or4g17 (olfactory receptor family 4 subfamily G member 17) | no change with or without drug | -1.35 | 0.51 | -1.57 | 0.82 |
| 1700084J12Rik (RIKEN cDNA 1700084J12 gene) | no change with or without drug | -1.12 | -0.51 | -0.79 | 0.84 |
| Ovch2 (ovochymase 2) | low cell count with doxorubicin only (active) | -2.7 | -1.18 | -2.02 | 0.7 |
| Ferd3l (Fer3 like bHLH transcription factor) | no change with or without drug | 0.56 | 1.01 | 0 | 0.99 |
| Myh9 (myosin, heavy polypeptide 9, non-muscle) | no change with or without drug | 0.67 | -0.84 | 1.46 | 1 |
| 9530019H20Rik (RIKEN cDNA 9530019H20 gene) | no change with or without drug | 0.34 | -0.17 | 0.56 | 0.97 |
| Naif1 (nuclear apoptosis inducing factor 1) | no change with or without drug | -1.35 | -1.18 | -0.56 | 0.82 |
| Otp (orthopedia homeobox) | low cell count with and without drug | -3.71 | -2.19 | -2.7 | 0.61 |
| Pcbp4 (poly(rC) binding protein 4) | no change with or without drug | -1.35 | -0.51 | -1.01 | 0.82 |
| Cdh5 (cadherin 5) | no change with or without drug | -0.9 | 0.84 | -1.35 | 0.86 |
| Samd9l (sterile alpha motif domain containing 9-like) | no change with or without drug | 0.45 | 0 | 0.56 | 0.98 |
| Ccdc202 (coiled-coil domain containing 202) | low cell count with doxorubicin only (active) | -2.25 | -0.67 | -1.91 | 0.74 |
| Asgr1 (asialoglycoprotein receptor 1) | no change with or without drug | -0.56 | -1.52 | 0.56 | 0.89 |
| Ipo5 (importin 5) | no change with or without drug | -0.34 | 0.51 | -0.56 | 0.91 |
| Khdc4 (KH domain containing 4, pre-mRNA splicing factor) | no change with or without drug | 0.67 | 0.84 | 0.22 | 1 |
| Cdr2 (cerebellar degeneration-related 2) | no change with or without drug | -0.11 | 1.35 | -0.9 | 0.93 |
| Smug1 | no change with or without drug | 0.22 | -0.17 | 0.45 | 0.96 |
| Atp6v0e (ATPase, H+ transporting, lysosomal V0 subunit E) | no change with or without drug | 1.12 | 1.01 | 0.56 | 1.04 |
